From publication PMC6237768
No constants are given. Whether binding was seen depends on the method and setting. Binding seen in cells or lysates may run through a third protein. Some entries that bind do so weakly or less than the wild type.

Amino acid sequences for entries named in this document (tags omitted).
UniProt Q9C035: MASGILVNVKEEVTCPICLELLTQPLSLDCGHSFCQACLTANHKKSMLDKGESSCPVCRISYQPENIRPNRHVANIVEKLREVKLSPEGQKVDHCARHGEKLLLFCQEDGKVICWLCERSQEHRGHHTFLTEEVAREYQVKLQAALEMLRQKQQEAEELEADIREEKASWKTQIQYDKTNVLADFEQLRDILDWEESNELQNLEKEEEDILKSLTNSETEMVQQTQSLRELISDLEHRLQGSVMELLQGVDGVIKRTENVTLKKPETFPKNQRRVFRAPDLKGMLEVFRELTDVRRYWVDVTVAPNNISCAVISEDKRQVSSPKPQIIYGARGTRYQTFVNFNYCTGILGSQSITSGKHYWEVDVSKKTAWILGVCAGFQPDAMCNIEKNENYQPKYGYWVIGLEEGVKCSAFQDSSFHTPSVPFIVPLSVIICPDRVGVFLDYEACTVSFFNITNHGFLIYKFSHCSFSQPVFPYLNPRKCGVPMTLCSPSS
UniProt P49792: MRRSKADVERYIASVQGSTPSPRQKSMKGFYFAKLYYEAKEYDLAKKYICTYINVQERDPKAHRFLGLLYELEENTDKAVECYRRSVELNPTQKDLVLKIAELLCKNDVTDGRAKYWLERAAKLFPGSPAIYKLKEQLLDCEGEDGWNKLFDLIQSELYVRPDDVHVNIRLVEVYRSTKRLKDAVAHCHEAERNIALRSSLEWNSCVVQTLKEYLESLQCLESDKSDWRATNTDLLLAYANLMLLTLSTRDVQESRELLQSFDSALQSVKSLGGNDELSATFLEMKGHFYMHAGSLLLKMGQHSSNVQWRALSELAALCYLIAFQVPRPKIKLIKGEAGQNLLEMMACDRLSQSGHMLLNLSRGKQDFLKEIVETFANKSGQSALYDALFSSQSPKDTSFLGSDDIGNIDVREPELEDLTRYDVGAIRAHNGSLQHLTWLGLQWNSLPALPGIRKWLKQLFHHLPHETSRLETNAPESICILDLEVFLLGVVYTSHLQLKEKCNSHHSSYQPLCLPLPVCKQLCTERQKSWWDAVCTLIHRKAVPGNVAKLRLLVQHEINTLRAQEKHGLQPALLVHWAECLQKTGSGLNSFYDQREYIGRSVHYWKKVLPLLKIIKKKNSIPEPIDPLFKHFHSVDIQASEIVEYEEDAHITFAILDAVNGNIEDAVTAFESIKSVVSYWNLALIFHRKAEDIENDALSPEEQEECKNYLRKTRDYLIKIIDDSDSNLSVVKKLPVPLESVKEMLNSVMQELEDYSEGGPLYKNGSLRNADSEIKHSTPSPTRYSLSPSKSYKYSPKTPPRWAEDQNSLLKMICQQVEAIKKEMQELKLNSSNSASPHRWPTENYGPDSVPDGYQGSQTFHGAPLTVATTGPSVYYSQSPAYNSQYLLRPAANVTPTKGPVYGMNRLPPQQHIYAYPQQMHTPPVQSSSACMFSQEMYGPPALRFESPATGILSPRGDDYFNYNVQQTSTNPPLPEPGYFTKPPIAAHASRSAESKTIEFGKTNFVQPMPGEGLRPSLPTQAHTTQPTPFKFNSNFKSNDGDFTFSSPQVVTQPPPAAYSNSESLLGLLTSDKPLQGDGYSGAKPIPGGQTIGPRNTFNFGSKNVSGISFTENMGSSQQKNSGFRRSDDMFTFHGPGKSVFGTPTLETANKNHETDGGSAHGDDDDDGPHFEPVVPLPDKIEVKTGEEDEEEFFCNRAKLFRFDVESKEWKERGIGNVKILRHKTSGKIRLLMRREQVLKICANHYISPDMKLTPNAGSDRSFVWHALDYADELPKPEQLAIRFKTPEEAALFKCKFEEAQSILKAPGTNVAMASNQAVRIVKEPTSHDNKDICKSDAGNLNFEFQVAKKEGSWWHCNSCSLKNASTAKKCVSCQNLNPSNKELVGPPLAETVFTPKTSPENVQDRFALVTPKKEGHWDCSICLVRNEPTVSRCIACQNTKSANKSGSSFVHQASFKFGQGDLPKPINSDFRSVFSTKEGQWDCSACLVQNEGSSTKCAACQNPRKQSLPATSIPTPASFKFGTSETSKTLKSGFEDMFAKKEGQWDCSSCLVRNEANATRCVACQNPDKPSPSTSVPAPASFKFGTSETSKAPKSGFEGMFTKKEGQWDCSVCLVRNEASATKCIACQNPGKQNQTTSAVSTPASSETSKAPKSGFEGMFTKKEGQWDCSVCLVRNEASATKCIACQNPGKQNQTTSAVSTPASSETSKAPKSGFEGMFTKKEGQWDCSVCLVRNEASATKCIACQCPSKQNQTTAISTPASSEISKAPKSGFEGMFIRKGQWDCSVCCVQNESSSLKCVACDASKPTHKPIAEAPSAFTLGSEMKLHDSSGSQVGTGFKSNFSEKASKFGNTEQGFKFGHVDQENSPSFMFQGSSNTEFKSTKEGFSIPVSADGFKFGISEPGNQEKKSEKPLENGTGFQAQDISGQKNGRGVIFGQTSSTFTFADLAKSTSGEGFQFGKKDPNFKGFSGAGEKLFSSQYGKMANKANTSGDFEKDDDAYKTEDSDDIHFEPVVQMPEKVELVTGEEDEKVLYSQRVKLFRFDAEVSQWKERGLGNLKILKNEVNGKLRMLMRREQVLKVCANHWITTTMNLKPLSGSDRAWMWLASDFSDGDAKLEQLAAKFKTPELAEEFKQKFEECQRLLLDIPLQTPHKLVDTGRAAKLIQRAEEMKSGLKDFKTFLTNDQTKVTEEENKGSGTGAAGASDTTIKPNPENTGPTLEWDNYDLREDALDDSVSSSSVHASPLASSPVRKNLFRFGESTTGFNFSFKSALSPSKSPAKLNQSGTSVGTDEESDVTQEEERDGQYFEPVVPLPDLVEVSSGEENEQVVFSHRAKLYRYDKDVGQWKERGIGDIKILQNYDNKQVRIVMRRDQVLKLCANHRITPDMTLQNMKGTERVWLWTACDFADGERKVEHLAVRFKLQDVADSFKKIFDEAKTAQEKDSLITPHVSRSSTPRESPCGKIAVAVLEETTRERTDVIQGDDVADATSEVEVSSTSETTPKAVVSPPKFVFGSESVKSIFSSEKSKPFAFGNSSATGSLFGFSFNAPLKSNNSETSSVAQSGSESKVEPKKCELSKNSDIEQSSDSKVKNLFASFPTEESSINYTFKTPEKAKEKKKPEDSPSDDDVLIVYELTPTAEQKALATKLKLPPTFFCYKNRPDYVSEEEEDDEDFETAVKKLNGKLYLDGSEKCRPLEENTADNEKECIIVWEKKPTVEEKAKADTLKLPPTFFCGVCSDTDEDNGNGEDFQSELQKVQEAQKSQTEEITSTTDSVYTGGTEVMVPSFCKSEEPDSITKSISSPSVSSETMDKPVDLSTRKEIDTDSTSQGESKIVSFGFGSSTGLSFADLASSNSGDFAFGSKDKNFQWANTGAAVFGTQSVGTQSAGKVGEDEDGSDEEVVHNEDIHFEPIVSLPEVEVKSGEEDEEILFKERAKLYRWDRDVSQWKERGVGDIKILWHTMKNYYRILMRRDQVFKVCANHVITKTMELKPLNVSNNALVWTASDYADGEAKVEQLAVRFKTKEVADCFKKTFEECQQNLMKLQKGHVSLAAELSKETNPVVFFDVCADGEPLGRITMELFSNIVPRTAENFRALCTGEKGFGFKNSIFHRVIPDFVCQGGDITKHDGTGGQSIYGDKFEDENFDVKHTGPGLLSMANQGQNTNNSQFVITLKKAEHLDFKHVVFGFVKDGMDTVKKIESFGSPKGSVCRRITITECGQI

Legend:
[1] = target: T1, Ran-specific GTPase activating protein RanGAP1 (human (endogenous in HeLa and HEK 293T)) (UniProt P46060); experiment: co-IP; endogenous RanGAP1 immunoprecipitated (goat α-RanGAP1, protein G sepharose, overnight 4 °C) from HeLa cytosolic extracts with 20 mM NEM; non-transduced, shE or shBP2 transduced cells; blotted for RanBP2, Ubc9, TRIM5α, SUMO1
T1 sequence: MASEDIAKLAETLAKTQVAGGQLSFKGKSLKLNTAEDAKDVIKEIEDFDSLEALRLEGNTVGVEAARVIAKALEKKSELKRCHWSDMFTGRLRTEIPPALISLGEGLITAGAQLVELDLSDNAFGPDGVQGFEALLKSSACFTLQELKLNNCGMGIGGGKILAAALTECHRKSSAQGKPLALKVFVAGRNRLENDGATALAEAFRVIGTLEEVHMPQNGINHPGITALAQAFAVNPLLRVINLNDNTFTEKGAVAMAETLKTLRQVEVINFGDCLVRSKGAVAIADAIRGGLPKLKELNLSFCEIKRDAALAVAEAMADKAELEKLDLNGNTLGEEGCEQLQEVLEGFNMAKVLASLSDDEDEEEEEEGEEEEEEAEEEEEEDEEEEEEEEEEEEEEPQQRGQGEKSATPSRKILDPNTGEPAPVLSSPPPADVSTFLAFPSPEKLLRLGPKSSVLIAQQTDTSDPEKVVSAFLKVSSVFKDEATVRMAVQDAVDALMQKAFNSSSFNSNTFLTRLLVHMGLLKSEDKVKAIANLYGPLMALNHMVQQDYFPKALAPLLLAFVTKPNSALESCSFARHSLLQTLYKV

[2] = target: TRIM5α (alpha isoform of the tripartite motif-containing protein 5), unmodified 55 kDa species (human (endogenous in HeLa and HEK 293T)) (UniProt Q9C035); experiment: co-IP; endogenous TRIM5α immunoprecipitated (rabbit α-TRIM5α, protein G sepharose, overnight 4 °C) from HeLa whole cell lysates with 20 mM NEM; non-transduced, shE, shBP2 or shTRIM5α transduced cells; blotted for RanBP2

Substance	binding [1]	binding [2]
TRIM5α (alpha isoform of the tripartite motif-containing protein 5), unmodified 55 kDa species (from UniProt Q9C035 1-493)	binds	–
RanBP2 (Nup358), nucleoporin and E3 SUMO ligase (from UniProt P49792 1-3224)	–	binds
